From PubChem BioAssay AID488898 (Broad Institute, 2010)
Only results without a clear call are listed here; the source files them as inconclusive.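 How the source made its calls: active means fitted half-maximal caspase rise reached at or below ten times the top valid dose; inconclusive means flat fit between 30 and 70 percent, or poor fit; inactive means the rest.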

Assay: caspase activation in Bax/Bak null MEFs, dose response, counter-screen for Bcl2-A1 inhibitor project, cell-based, mouse embryonic fibroblasts, dry powder (AID 488898)
Conditions: Bax/Bak-/- MEF caspase activation, CaspaseGlo luminescence, 3 h
In short: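 Assay system: Bax/Bak double-knockout mouse embryonic fibroblasts, counterscreen cell line / Quantity: 2500 cells/well / Buffer or medium: RPMI-1640 growth medium with 10% FBS / Doses: pin-transferred compound / Times: 3 h compound exposure (37 °C), then 1 h RT detection / Signal: Caspase-Glo luminescent readout / Evaluation: caspase activation as toxicity or off-target flag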

## CC1(C)CCC(c2ccc(Cl)cc2)=C(CN2CCN(c3ccc(C(=O)NS(=O)(=O)c4ccc(N[C@H](CCN5CCOCC5)CSc5ccccc5)c(S(=O)(=O)C(F)(F)F)c4)cc3)CC2)C1
  outcome: inconclusive
